Whole data set: some 33,000 sequences, median “E-score (-0.5 to 0.5)” near -8e-05, cut for the highest 2% near 0.23. The list shows a part of the results.
Biological target: T1, Nrg2 (UniProt P38082)
T1 sequence: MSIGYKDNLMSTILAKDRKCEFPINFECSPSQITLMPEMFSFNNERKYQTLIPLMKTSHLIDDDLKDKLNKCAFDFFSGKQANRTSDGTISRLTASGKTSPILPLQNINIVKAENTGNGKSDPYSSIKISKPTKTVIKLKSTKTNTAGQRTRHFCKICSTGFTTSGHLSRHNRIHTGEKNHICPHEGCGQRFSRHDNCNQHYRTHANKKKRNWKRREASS
Assay: PBM E-score (8-mer binding enrichment) (E-score (-0.5 to 0.5)); higher = stronger / more preferred TF binding
Conditions: protein concentration: 100 nM; construct: GST-full length
Experimental: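 Universal 'all 10-mer' protein binding microarrays (Agilent AMADID 015681) probed with GST-tagged S. cerevisiae TFs (full-length or DBD) made by in vitro transcription/translation (PURExpress), about 100-200 nM. Bound TF was detected with fluorescent anti-GST. Each ungapped 8-mer (which stands for itself and its reverse complement) is scored by the PBM enrichment score (E-score), a modified Wilcoxon-Mann-Whitney statistic from -0.5 to +0.5, computed with the Universal PBM Analysis Suite. Scale: above 0.35 generally sequence-specific binding.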

In order of falling “PBM E-score” value:
1. ATGCGACC  0.222
2. ACAAAACG  0.209
3. GATTATAA  0.207
4. AATTTATA  0.201
5. ATCTCGGG  0.18
6. ACGCGACA  0.176
7. ACGAGGAA  0.174
8. AGCTGATG  0.156
9. AATTGTTC  0.153
10. AGGGTACG  0.15
11. AATAGTGT  0.149
12. CATTCGGG  0.146
13. CAGTACAG  0.142
14. GCGCGTCA  0.141
15. ACAGTAGA  0.138
16. AGCAGACC  0.135
17. ATCGATAG  0.119
18. ACTAGCTC  0.119
19. GTGATGTA  0.118
20. AATTAGTC  0.107
21. AATGGAAA  0.105
22. ATATCCAA  0.0981
23. GTTTACCA  0.0775
24. CATGAAGG  0.0733
25. ATTGAGAG  0.0708
26. AAAGGATA  0.0589
27. AATCGATC  0.0541
28. AGCATGAC  0.0515
29. CCAGCAAG  0.0352
30. GCAGAGAA  0.0344
31. ACTGGTCA  0.0341
32. CAGGCTTC  0.0308
33. GAATAAAC  0.0301
34. CTCACGCC  0.0298
35. CGCGAGCC  0.0282
36. CTACTACC  0.0262
37. TTCTCCAA  0.017
38. ACTCCTGC  0.0155
39. AATCCCCT  0.0153
40. CATCTTAG  0.0135
41. ATATAGGG  0.012
42. ATGCCAAT  0.0107
43. AACCCGCC  0.00993
44. CCGGACTC  0.00878
45. CCGAGCGC  0.00807
46. GTACAGAA  0.003
47. GTCTCAAC  0.00205
48. GTAGGGGA  0.0006
49. AGTGTGAC  -8e-05
50. ATCCTAGA  -0.00185
51. AAGCAGAG  -0.00195
52. ATCACCTC  -0.0043
53. GGAGGGGA  -0.00585
54. CTTGTCAC  -0.00902
55. AATCACAA  -0.0115
56. CGGCTCAC  -0.0136
57. CAGTAGGG  -0.0149
58. AGCAAGTG  -0.0161
59. CCGTCGCA  -0.0175
60. CTGAGTCC  -0.0223
61. CTTGTTAC  -0.0274
62. CAGTGCGA  -0.0277
63. CACACTGA  -0.0328
64. TGCGGTAA  -0.0335
65. GACTAACA  -0.0342
66. GCAAGGCC  -0.0343
67. CCGGGGAA  -0.0346
68. AAGACAAG  -0.0376
69. ACGTCCCC  -0.0434
70. CGCTAACG  -0.0471
71. GCAAGTAC  -0.0477
72. CACGGCCA  -0.0483
73. GCATCCAA  -0.0508
74. CAATACGG  -0.0523
75. CCGTCTCA  -0.0533
76. AAGTCGTG  -0.06
77. AGTCCGAT  -0.0623
78. CGGTCACA  -0.0641
79. ATGGTTAA  -0.0657
80. AGCGGTAC  -0.0689
81. GCACTTTA  -0.0724
82. ACGCGACT  -0.0738
83. GGCGCGGA  -0.0805
84. AGATGTGG  -0.0882
85. CCTATGCC  -0.0984
86. GGTTAAAA  -0.104
87. GAGGTAGC  -0.113
88. CCTAAACA  -0.115
89. AGCGTCCC  -0.116
90. GCCAACAA  -0.121
91. ATAGTCGG  -0.122
92. TAGTCTAA  -0.122
93. GCAGACCA  -0.125
94. TGCCTTAA  -0.131
95. GTCGCCCA  -0.131
96. GCCCAACA  -0.139
97. AAGGGCAT  -0.139
98. ATTGGAGG  -0.149
99. GAAAGGGC  -0.15
100. GCGTGGTA  -0.155
101. CCGAAGCC  -0.159
102. CGTGGGTA  -0.174
103. ACACGTAA  -0.178
104. ACCGGTCC  -0.201
105. GCCGGTCC  -0.239
106. GGGAGACC  -0.25
107. CCTCTGTA  -0.283
108. CGACTACC  -0.31
109. AAGGCCTT  -0.363
